Experimental data as given in article PMC11406190.
Positions count from the first letter of the chain named. Names may count otherwise. Results are given in words; binding and its absence hold for the method and conditions named. Binding seen in cells or lysates may run through a third protein. Some binding calls cover weakened binding; strength is not graded here. For some of these results: Tags and fused reporters may be left off the sequences shown. Each block holds one binder with its values, some of them ahead of it.

Amino acid sequences for entries named in this document (tags omitted).
UniProt Q14587: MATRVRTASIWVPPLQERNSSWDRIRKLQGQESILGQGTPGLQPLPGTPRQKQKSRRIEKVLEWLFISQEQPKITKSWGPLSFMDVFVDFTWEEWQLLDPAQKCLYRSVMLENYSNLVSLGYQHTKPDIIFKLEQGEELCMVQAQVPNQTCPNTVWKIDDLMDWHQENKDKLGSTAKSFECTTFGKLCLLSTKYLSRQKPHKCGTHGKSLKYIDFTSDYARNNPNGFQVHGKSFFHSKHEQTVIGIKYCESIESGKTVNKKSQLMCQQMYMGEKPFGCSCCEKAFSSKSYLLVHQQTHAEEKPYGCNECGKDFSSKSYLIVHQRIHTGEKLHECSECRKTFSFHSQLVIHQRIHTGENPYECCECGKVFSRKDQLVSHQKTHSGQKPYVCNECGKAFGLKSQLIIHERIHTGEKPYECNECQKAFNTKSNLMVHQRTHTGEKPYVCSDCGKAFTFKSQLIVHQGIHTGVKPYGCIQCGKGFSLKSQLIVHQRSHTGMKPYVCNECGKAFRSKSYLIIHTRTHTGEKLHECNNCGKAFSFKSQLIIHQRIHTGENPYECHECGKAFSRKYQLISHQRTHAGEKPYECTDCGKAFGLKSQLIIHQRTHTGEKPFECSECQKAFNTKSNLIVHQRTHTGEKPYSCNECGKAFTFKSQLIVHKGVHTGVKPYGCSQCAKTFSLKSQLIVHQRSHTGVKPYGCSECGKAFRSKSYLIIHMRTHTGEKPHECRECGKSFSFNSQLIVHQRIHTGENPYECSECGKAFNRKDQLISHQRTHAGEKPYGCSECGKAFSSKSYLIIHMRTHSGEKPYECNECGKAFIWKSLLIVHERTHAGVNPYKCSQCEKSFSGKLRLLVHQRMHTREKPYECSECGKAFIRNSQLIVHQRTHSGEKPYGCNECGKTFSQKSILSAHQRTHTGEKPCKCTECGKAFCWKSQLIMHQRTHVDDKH
UniProt Q7Z434: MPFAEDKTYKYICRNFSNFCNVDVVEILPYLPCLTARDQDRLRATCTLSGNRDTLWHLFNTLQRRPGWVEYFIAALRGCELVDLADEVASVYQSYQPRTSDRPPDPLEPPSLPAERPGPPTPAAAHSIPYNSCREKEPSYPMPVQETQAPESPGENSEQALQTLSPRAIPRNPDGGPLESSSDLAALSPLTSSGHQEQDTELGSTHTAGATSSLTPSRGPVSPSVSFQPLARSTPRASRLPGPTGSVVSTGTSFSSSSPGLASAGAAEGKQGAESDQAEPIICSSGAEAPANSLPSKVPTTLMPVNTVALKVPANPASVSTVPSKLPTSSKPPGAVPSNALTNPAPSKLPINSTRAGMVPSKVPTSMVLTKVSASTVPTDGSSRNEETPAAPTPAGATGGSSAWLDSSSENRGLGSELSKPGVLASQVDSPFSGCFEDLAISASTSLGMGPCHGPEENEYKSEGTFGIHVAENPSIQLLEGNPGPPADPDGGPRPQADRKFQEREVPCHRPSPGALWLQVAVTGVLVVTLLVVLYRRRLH

Tests used:
[1] = biological target: Flag-tagged ZNF268a (human) (UniProt Q14587); assay: co-IP
[2] = biological target: STING, Q86WV6; assay: co-IP; ZNF268a WT and KO HEK293T cells transfected with Flag-MAVS, STING or IRF3-2A; endogenous TBK1 blotted in lysates and immunoprecipitants; conditions: remark: other sources report otherwise
[3] = biological target: HA-MAVS (UniProt Q7Z434); assay: co-IP
[4] = biological target: T1, HA-IRF3 (UniProt Q14653); assay: co-IP
T1 sequence: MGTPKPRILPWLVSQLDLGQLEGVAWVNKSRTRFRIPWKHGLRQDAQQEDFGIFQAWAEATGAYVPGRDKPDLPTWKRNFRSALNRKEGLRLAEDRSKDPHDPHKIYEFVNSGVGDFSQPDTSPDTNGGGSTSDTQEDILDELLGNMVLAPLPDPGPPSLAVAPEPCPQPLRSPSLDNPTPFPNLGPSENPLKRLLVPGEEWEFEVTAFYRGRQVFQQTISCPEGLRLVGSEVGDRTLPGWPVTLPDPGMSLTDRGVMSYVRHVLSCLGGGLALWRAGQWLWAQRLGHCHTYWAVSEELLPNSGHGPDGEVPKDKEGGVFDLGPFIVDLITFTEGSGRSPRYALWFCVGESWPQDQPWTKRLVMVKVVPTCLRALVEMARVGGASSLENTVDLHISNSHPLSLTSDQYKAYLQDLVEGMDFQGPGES

[5] = biological target: Flag-tagged ZNF268a (human) (UniProt Q14587); assay: co-IP; HEK293T cells transfected with Flag-ZNF268a for 24 h; IP with anti-Flag, immunoblot with antibody to endogenous TBK1
[6] = biological target: HA-ZNF268a (human) (UniProt Q14587); assay: co-IP

binding [1]: binds
B1: HA-tagged TBK1 (enzyme, UniProt Q9UHD2 1-729)
chain: MQSTSNHLWLLSDILGQGATANVFRGRHKKTGDLFAIKVFNNISFLRPVDVQMREFEVLKKLNHKNIVKLFAIEEETTTRHKVLIMEFCPCGSLYTVLEEPSNAYGLPESEFLIVLRDVVGGMNHLRENGIVHRDIKPGNIMRVIGEDGQSVYKLTDFGAARELEDDEQFVSLYGTEEYLHPDMYERAVLRKDHQKKYGATVDLWSIGVTFYHAATGSLPFRPFEGPRRNKEVMYKIITGKPSGAISGVQKAENGPIDWSGDMPVSCSLSRGLQVLLTPVLANILEADQEKCWGFDQFFAETSDILHRMVIHVFSLQQMTAHKIYIHSYNTATIFHELVYKQTKIISSNQELIYEGRRLVLEPGRLAQHFPKTTEENPIFVVSREPLNTIGLIYEKISLPKVHPRYDLDGDASMAKAITGVVCYACRIASTLLLYQELMRKGIRWLIELIKDDYNETVHKKTEVVITLDFCIRNIEKTVKVYEKLMKINLEAAELGEISDIHTKLLRLSSSQGTIETSLQDIDSRLSPGGSLADAWAHQEGTHPKDRNVEKLQVLLNCMTEIYYQFKKDKAERRLAYNEEQIHKFDKQKLYYHATKAMTHFTDECVKKYEAFLNKSEEWIRKMLHLRKQLLSLTNQCFDIEEEVSKYQEYTNELQETLPQKMFTASSGIKHTMTPIYPSSNTLVEMTLGMKKLKEEMEGVVKELAENNHILERFGSLTMDGGLRNVDCL

binding [2]: binds
B2: endogenous TBK1, Q9UHD2 1-729 (enzyme)
chain: B1 chain

binding [3]: binds
binding [4]: binds
B3: Flag-TBK1 K607A (enzyme, UniProt Q9UHD2 1-729)
chain: B1 chain with K607A

binding [4]: binds
B4: Flag-TBK1 WT (enzyme, UniProt Q9UHD2 1-729)
chain: B1 chain

binding [5]: binds
B5: endogenous TBK1 (enzyme, UniProt Q9UHD2 1-729)
chain: B1 chain

binding [6]: binds
B6: Flag-SETD4 (enzyme, UniProt Q9NVD3 1-440)
chain: MQKGKGRTSRIRRRKLCGSSESRGVNESHKSEFIELRKWLKARKFQDSNLAPACFPGTGRGLMSQTSLQEGQMIISLPESCLLTTDTVIRSYLGAYITKWKPPPSPLLALCTFLVSEKHAGHRSLWKPYLEILPKAYTCPVCLEPEVVNLLPKSLKAKAEEQRAHVQEFFASSRDFFSSLQPLFAEAVDSIFSYSALLWAWCTVNTRAVYLRPRQRECLSAEPDTCALAPYLDLLNHSPHVQVKAAFNEETHSYEIRTTSRWRKHEEVFICYGPHDNQRLFLEYGFVSVHNPHACVYVSREILVKYLPSTDKQMDKKISILKDHGYIENLTFGWDGPSWRLLTALKLLCLEAEKFTCWKKVLLGEVISDTNEKTSLDIAQKICYYFIEETNAVLQKVSHMKDEKEALINQLTLVESLWTEELKILRASAETLHSLQTAFT
